Laboratory results: patent US9669036B2, “Modulation of reactivation of a latent virus” (priority 2013, dated 2017)
At least one compound was matched to its structure with a doubt left.

Tested on: latent HSV-1(F)
Type: cell-based
Settings: for Significant Activation of Latent HSV: ganglionic organ cultures in medium containing NGF and EGF, 24 h after excision, three concentrations tested

Row | SMILES | Significant Activation of Latent HSV | Comments: activation of latent HSV (medium containing NGF and EGF, all concentrations tested)
1 | Cc1[nH]c2ccccc2c1CCNCc1ccc(/C=C/C(=O)NO)cc1 [Panobinostat] | Yes | –
2 | C/C=C1\NC(=O)[C@H]2CSSCC/C=C/[C@H](CC(=O)N[C@H](C(C)C)C(=O)N2)OC(=O)[C@H](C(C)C)NC1=O [Romidepsin] | No | No activation
3 | CO[C@H]1C[C@@H]2CC[C@@H](C)[C@@](O)(O2)C(=O)C(=O)N2CCCC[C@H]2C(=O)O[C@H]([C@H](C)C[C@@H]2CC[C@@H](O)[C@H](OC)C2)CC(=O)[C@H](C)/C=C(\C)[C@@H](O)[C@@H](OC)C(=O)[C@H](C)C[C@H](C)/C=C/C=C/C=C/1C [Rapamycin] | Yes | –
